According to patent publication US10640547B2, “Immunotherapy against melanoma and other cancers” (IMMATICS BIOTECHNOLOGIES GMBH, priority 2016, dated 2020):

Tested on: HLA molecules of melanoma, other tumor and normal tissue samples
Test: Identification and relative quantitation of tumor associated peptides presented on the cell surface (HLA immunoprecipitation, label-free LC-MS)
Parameters: species or system human; key to Peptide Presentation (presentation score): very highly over-presented on tumors compared to a panel of normal tissues (+++); highly over-presented on tumors compared to a panel of normal tissues (++); over-presented on tumors compared to a panel of normal tissues (+)
Details: for Peptide Presentation (presentation score): over-presentation on tumors compared to a panel of normal tissues; for relevant organs/diseases (additional tumor types on which the peptide was found) / Additional Entities (additional tumor types on which the peptide was found): over-presented on more than 5% of the measured tumor samples, or presented on more than 5% with ratio of geometric means tumor vs normal tissues larger than 3

## 228 (FLNLFNHTL; listed as Homo sapiens) [compound 228]
  Peptide Presentation (presentation score): +
  relevant organs/diseases (additional tumor types on which the peptide was found): CLL

## 164 (ALFFQLVDV; listed as Homo sapiens) [compound 164]
  Peptide Presentation (presentation score): ++
  Additional Entities (additional tumor types on which the peptide was found): HCC, HNSCC
  relevant organs/diseases (additional tumor types on which the peptide was found): SCLC, RCC, AML, BRCA

## 24 (SLVAILHLL; listed as Homo sapiens) [compound 24]
  Peptide Presentation (presentation score): ++
  Additional Entities (additional tumor types on which the peptide was found): NSCLC, OC, HNSCC
  relevant organs/diseases (additional tumor types on which the peptide was found): NHL, Gallbladder Cancer, Bile Duct Cancer

## 226 (VLNEYFHNV; listed as Homo sapiens) [compound 226]
  Peptide Presentation (presentation score): +
  Additional Entities (additional tumor types on which the peptide was found): NHL, HNSCC
  relevant organs/diseases (additional tumor types on which the peptide was found): SCLC, HCC, BRCA, Esophageal Cancer, Urinary bladder cancer, Uterine Cancer

## 70 (LIDEAAQML; listed as Homo sapiens) [compound 70]
  Peptide Presentation (presentation score): +++

## 161 (GLCDSIITI; listed as Homo sapiens) [compound 161]
  Additional Entities (additional tumor types on which the peptide was found): GC, CRC, HCC, HNSCC
  relevant organs/diseases (additional tumor types on which the peptide was found): NSCLC, Brain Cancer, PC, NHL, BRCA, Uterine Cancer

## 16 (GLFPSNFVTA; listed as Homo sapiens) [compound 16]
  Additional Entities (additional tumor types on which the peptide was found): CLL, BRCA, AML

## 66 (VMFEYGMRL; listed as Homo sapiens) [compound 66]
  Peptide Presentation (presentation score): +++

## 141 (YVIDPIKGL; listed as Homo sapiens) [compound 141]
  Additional Entities (additional tumor types on which the peptide was found): Esophageal Cancer

## 175 (VLDSVDVRL; listed as Homo sapiens) [compound 175]
  Peptide Presentation (presentation score): +
  relevant organs/diseases (additional tumor types on which the peptide was found): RCC, AML

## 30 (VLFPMDLAL; listed as Homo sapiens) [compound 30]
  Peptide Presentation (presentation score): +++
  Additional Entities (additional tumor types on which the peptide was found): HNSCC
  relevant organs/diseases (additional tumor types on which the peptide was found): RCC

## 212 (LLKDSIVQL; listed as Homo sapiens) [compound 212]
  Peptide Presentation (presentation score): +
  Additional Entities (additional tumor types on which the peptide was found): GC, HCC, AML, NHL
  relevant organs/diseases (additional tumor types on which the peptide was found): RCC, CLL, Urinary bladder cancer

## 40 (LLSNTVSTL; listed as Homo sapiens) [compound 40]
  Peptide Presentation (presentation score): +++

## 235 (ALADLQEAV; listed as Homo sapiens) [compound 235]
  Peptide Presentation (presentation score): ++
  relevant organs/diseases (additional tumor types on which the peptide was found): Brain Cancer, PrC, Uterine Cancer

## 181 (GLIDLEANYL; listed as Homo sapiens) [compound 181]
  Peptide Presentation (presentation score): +
  relevant organs/diseases (additional tumor types on which the peptide was found): Brain Cancer, CLL, Uterine Cancer

## 114 (VVDDIVSKL; listed as Homo sapiens) [compound 114]
  Peptide Presentation (presentation score): +++
  Additional Entities (additional tumor types on which the peptide was found): GC, AML

## 69 (IIDDKPIGL; listed as Homo sapiens) [compound 69]
  Peptide Presentation (presentation score): +++

## 4 (KTWDQVPFSV; listed as Homo sapiens) [compound 4]
  Peptide Presentation (presentation score): +++

## 19 (VLAVLGAVVAV; listed as Homo sapiens) [compound 19]
  Peptide Presentation (presentation score): +++
  Additional Entities (additional tumor types on which the peptide was found): HCC, CLL, HNSCC
  relevant organs/diseases (additional tumor types on which the peptide was found): SCLC, RCC, BRCA, Uterine Cancer

## 195 (IAAGIFNDL; listed as Homo sapiens) [compound 195]
  Peptide Presentation (presentation score): +++
  Additional Entities (additional tumor types on which the peptide was found): Gallbladder Cancer, Bile Duct Cancer
  relevant organs/diseases (additional tumor types on which the peptide was found): CLL, AML
